# Data as given in PubChem BioAssay AID1508588 (Peter MacCallum Cancer Centre, 2020)
# Screen: 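Genome-wide search for knock-downs that heighten vemurafenib action in melanoma cells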 (primary screen)
# Cell system: human WM266.4 melanoma cells (BRAF V600 mutant)
# Reagents: siRNA pool against human genes, 40 nM
# Duration: 96 h from transfection to read-out
# Conditions: vemurafenib 300 nM (about IC25), added 48 h after transfection, for 48 h; comparison arm got DMSO vehicle only
# Detection: 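Cell gain (DAPI nuclei at end minus before drug, mean of two replicates) and medium lactate by absorbance per cell, both as ratio to non-targeting siRNA, also grouped into fold-change classes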
# Scale: cell gain with vemurafenib: higher = more cell gain than with non-targeting siRNA; lactate per cell with vemurafenib: higher = more lactate made per cell
# Hit rule: 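Enhancement is called by pairing each knock-down's vehicle-arm and drug-arm fold-change classes for viability or glycolysis; which class combinations qualify is not given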
# Meaning of the calls: active = enhances vemurafenib effect; inactive = no enhancement seen
# This is one part, drawn at random, of about 18,000 reagents. 790 of them (4.4%) count as active. 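Calls rest on a combination of fold-change classes in drug and vehicle arms, not all shown here.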
Target gene,PubChem SID,cell gain with vemurafenib,lactate per cell with vemurafenib,Call
PRPF6 (GeneID 24148),SID152155903,0.14,1.86,inactive
MILR1 (GeneID 284021),SID152151473,0.16,1.46,inactive
MX1 (GeneID 4599),SID134316054,0.36,1.13,inactive
SIGLEC6 (GeneID 946),SID152147291,1,0.53,inactive
RTP2 (GeneID 344892),SID135624395,0.77,1.38,inactive
ZNF574 (GeneID 64763),SID134312177,0.2,1.44,inactive
JSRP1 (GeneID 126306),SID134324895,0.22,1.04,inactive
OIP5 (GeneID 11339),SID134317035,0.68,1.38,inactive
ADH1B (GeneID 125),SID152156155,0.7,0.78,inactive
CDAN1 (GeneID 146059),SID135622955,0.88,0.68,inactive
PDLIM5 (GeneID 10611),SID152150196,0.69,1.42,inactive
TSSK2 (GeneID 23617),SID56479050,0.69,0.66,inactive
NIPSNAP1 (GeneID 8508),SID134315824,1.16,0.88,inactive
SLC2A14 (GeneID 144195),SID134312560,0.74,0.92,inactive
VN1R10P (GeneID 387316),SID135622816,0.85,0.3,active
UBXN11 (GeneID 91544),SID135623138,0.36,0.49,inactive
VMP1 (GeneID 81671),SID152153642,0.84,0.48,active
RRM1 (GeneID 6240),SID152154045,-0.07,1.58,inactive
ZMYM6 (GeneID 9204),SID152148722,0.76,1.52,inactive
RAB1B (GeneID 81876),SID152147368,0.04,3.66,inactive
GNB4 (GeneID 59345),SID152152483,0.39,1.36,inactive
NBPF11 (GeneID 200030),SID135623732,0.89,0.38,inactive
EOGT (GeneID 285203),SID134325649,0.39,0.77,inactive
ANGEL1 (GeneID 23357),SID135622658,0.33,1.32,inactive
PSMD8 (GeneID 5714),SID152153646,-0.06,3.23,inactive
LEPROT (GeneID 54741),SID152152272,0.22,3.49,inactive
CD101 (GeneID 9398),SID135623855,1.28,0.68,inactive
ARL13A (GeneID 392509),SID152149210,1.04,1,inactive
BCL9L (GeneID 283149),SID152154297,0.26,1.02,inactive
NOL10 (GeneID 79954),SID135622756,0.64,0.44,inactive
TTC1 (GeneID 7265),SID134323346,0.64,1.18,inactive
TTPA (GeneID 7274),SID152151575,0.74,0.74,inactive
PPP1R3C (GeneID 5507),SID134321038,0.54,2.06,inactive
LIMS3 (GeneID 96626),SID134319179,0.85,1.31,inactive
DRAP1 (GeneID 10589),SID134313815,0.49,1.51,inactive
CFAP58 (GeneID 159686),SID152148968,0.87,0.65,inactive
YIPF4 (GeneID 84272),SID134318937,0.94,0.38,inactive
ULK1 (GeneID 8408),SID56478976,0.66,0.76,inactive
TMEM50B (GeneID 757),SID152151444,0.86,0.68,inactive
HOMER1 (GeneID 9456),SID134320053,0.9,0.6,inactive
FADS3 (GeneID 3995),SID134313354,0.42,2.06,inactive
MTRR (GeneID 4552),SID134314713,0.49,0.64,inactive
RPS3 (GeneID 6188),SID152146996,0.05,2.43,inactive
OXER1 (GeneID 165140),SID152151532,0.89,0.64,inactive
PREPL (GeneID 9581),SID135621098,0.6,1.13,inactive
CLMP (GeneID 79827),SID134315225,0.74,1.07,inactive
SLC25A48 (GeneID 153328),SID135621356,0.25,1.29,inactive
GJA3 (GeneID 2700),SID152152983,0.44,0.67,active
MRGBP (GeneID 55257),SID134311767,0.39,0.96,inactive
SLC23A3 (GeneID 151295),SID135621375,1.09,0.66,inactive
UBTD1 (GeneID 80019),SID134322246,0.6,0.73,inactive
CFB (GeneID 629),SID135621074,0.96,0.52,inactive
ABTB3 (GeneID 121551),SID135623014,0.66,0.72,inactive
GTPBP4 (GeneID 23560),SID152156465,0.62,0.73,inactive
CD84 (GeneID 8832),SID134316885,0.83,0.62,inactive
SLC29A3 (GeneID 55315),SID135621395,0.25,0.78,inactive
GIPC3 (GeneID 126326),SID134319461,0.55,1.26,inactive
EIF3M (GeneID 10480),SID152147764,0.29,0.64,inactive
FCRL2 (GeneID 79368),SID134320480,0.34,1.27,inactive
DIRAS3 (GeneID 9077),SID135621613,0.82,1.1,inactive
GGT5 (GeneID 2687),SID135621798,0.4,0.6,inactive
LINC00173 (GeneID 100287569),SID134329587,0.41,0.62,inactive
NMNAT1 (GeneID 64802),SID152152467,0.22,0.99,inactive
UTP15 (GeneID 84135),SID152151486,0.26,1.2,inactive
RPL22 (GeneID 6146),SID134315501,0.3,1,inactive
APOL5 (GeneID 80831),SID134317658,0.42,0.36,inactive
ASIP (GeneID 434),SID152153587,0.83,0.68,inactive
OR51A2 (GeneID 401667),SID135625178,0.73,1.09,inactive
DHX29 (GeneID 54505),SID152149583,0.53,1.65,inactive
ZNF580 (GeneID 51157),SID135624112,0.34,0.92,inactive
BAG6 (GeneID 7917),SID152153882,0.25,0.94,inactive
AEN (GeneID 64782),SID134320330,0.54,1.15,inactive
TOP3A (GeneID 7156),SID152151637,0.73,0.88,inactive
CLN8 (GeneID 2055),SID135622498,0.74,1.7,inactive
POSTN (GeneID 10631),SID152156063,0.79,0.5,inactive
KRT77 (GeneID 374454),SID135625036,0.99,0.9,inactive
TRDN (GeneID 10345),SID152148430,0.39,0.54,active
C3 (GeneID 718),SID152155440,0.77,0.87,inactive
PSMC6 (GeneID 5706),SID134314301,-0.1,5.62,inactive
LOXL4 (GeneID 84171),SID152156555,1.16,0.66,inactive
HSPD1 (GeneID 3329),SID134315098,0.84,0.7,inactive
MYH14 (GeneID 79784),SID135624641,0.32,0.62,inactive
PEX14 (GeneID 5195),SID152154299,0.61,0.78,inactive
PDYN (GeneID 5173),SID134322960,1.15,0.57,inactive
SLC25A3 (GeneID 5250),SID134312530,0.44,1.54,inactive
SLCO1A2 (GeneID 6579),SID134312487,0.67,0.89,inactive
MAGEE1 (GeneID 57692),SID135622688,0.7,1.47,inactive
ARL15 (GeneID 54622),SID134324069,0.51,0.98,inactive
BACH2 (GeneID 60468),SID134314501,0.42,2.16,inactive
BCL7A (GeneID 605),SID152155496,0.83,0.94,inactive
MACC1 (GeneID 346389),SID152153034,0.53,0.36,inactive
SLC27A2 (GeneID 11001),SID135621389,0.92,0.59,inactive
AAAS (GeneID 8086),SID152156584,0.59,1.29,inactive
KISS1R (GeneID 84634),SID152153560,0.76,0.95,inactive
WRN (GeneID 7486),SID152148996,0.55,0.74,inactive
PLEKHA3 (GeneID 65977),SID152148551,0.79,1.04,inactive
OSM (GeneID 5008),SID134315028,0.48,1.24,inactive
ITGB1BP1 (GeneID 9270),SID152148039,0.2,1.03,inactive
PFDN1 (GeneID 5201),SID152149593,0.13,1.87,inactive
SYNGR4 (GeneID 23546),SID152154619,0.14,0.98,inactive
AKAP12 (GeneID 9590),SID134314828,0.46,0.2,active
ULBP3 (GeneID 79465),SID134318514,0.63,0.82,inactive
MS4A8 (GeneID 83661),SID135621641,0.52,0.54,inactive
RNF215 (GeneID 200312),SID152149474,0.55,1.23,inactive
BLOC1S1 (GeneID 2647),SID134316842,0.5,1.16,inactive
KCNA7 (GeneID 3743),SID134311635,0.53,0.76,inactive
XKR6 (GeneID 286046),SID152147703,0.51,0.98,inactive
